# Assay results published in PubChem BioAssay (EPA / NIEHS).
# The chains behind the UniProt entries cited, without tags or fusion partners.
# UniProt P08684, whole entry, looked up: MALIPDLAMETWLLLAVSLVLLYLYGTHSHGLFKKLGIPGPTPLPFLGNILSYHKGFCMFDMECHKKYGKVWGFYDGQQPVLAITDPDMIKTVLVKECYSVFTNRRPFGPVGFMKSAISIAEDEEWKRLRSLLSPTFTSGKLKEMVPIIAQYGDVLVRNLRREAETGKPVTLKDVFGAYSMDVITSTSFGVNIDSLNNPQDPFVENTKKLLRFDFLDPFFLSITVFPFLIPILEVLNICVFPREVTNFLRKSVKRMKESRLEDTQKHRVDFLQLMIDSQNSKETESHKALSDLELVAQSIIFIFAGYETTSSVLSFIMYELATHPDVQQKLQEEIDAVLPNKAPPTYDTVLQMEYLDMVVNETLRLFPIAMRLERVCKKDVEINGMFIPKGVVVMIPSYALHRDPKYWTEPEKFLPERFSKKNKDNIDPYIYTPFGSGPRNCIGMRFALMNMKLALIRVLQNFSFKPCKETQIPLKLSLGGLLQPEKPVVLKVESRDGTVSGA
# The inconclusive results got no clear call from the source; some entries with a clear call stand among them for comparison. A potency beside an inconclusive call is a rough fit, not a confirmed value. The source made the active and inactive calls. How the source made its calls: active means hit-call score of the fitted dose curve at least 0.9, where 1 is the maximum; inconclusive means response in the unintended direction; inactive means score below 0.9.
# Read-out: Cytochrome P450 3A4 (Homo sapiens) (UniProt P08684)
# Experiment: CLD_CYP3A4_48hr: CellzDirect (CLD) Gene Expression Assay for xenobiotic metabolism (CYP3A4) at 48 hours (AID 2283698)
# Procedure: CLD_48hr is a cell-based, multiplexed-readout assay that uses hepatocyte, a human liver primary cell, with measurements taken at 48 hours after chemical dosing in a 96-well plate.CLD_CYP3A4_48hr is one of 16 assay component(s) measured or calculated from the CLD_48hr assay. It is designed to make measurements of mRNA induction, a form of inducible reporter, as detected with chemiluminescence signals by Quantitative Nuclease Protection Assay (qNPA) technology.Data from the assay component CLD_CYP3A4_48hr was analyzed at the endpoint, CLD_CYP3A4_48hr, in the positive analysis fitting direction relative to DMSO as the negative control and baseline of activity. Using a type of inducible reporter, gain-of-signal activity can be used to understand changes in the reporter gene as they relate to the gene CYP3A4. Furthermore, this assay endpoint can be referred to as a primary readout. To generalize the intended target to other relatable targets, this assay endpoint is annotated to the cyp intended target family, where subfamily is xenobiotic metabolism.
# Human hepatocyte cultures were treated daily for two consecutive days with fresh dosing solutions containing appropriate concentrations of the 320 ToxCast chemicals (chemical identities were blinded to CellzDirect and other ToxCast collaborators), vehicle control (0.2% DMSO), and positive control inducers as summarized in Table 1. Due to the large number of treatment groups and chemicals examined, the ToxCast chemicals were divided into two groups (spanning two independent cultures of hepatocytes from separate donor preparations (Hu778: ToxCast plates 1 and 2; Hu776: ToxCast plates 3 and 4). Each preparation of human hepatocyte cultures was treated with respective vehicle control, medium only control, set of six positive controls/reference chemicals for the five hepatic receptor pathways, and a subset of eight of the ToxCast chemicals (indoxacarb, pyrithiobac-sodium, norflurazon, cyhalofop-butyl, methomyl, thiram, acetochlor, and propiconazole). These replicate data, coupled with internal replicates designed within the blinded ToxCast chemical library, provided additional data to evaluate interindividual differences between hepatocyte preparations and their potential impact on chemical profiles.Cell morphology and integrity were evaluated using phase-contrast microscopy as an indicator of hepatocyte cell health (Tyson & Green, 1987). Cultures for each treatment group (i.e., media, vehicle [0.2% DMSO], positive control inducers [multiple concentrations], and the ToxCast chemicals [multiple concentrations]) were observed and cell morphology was assessed relative to vehicle control cultures at each harvest time point (0, 6, 24, or 48 h). […] Images were evaluated at the conclusion of the study to assess changes in cell integrity and account for the effects of chemical exposure on uncharacteristic changes in concentration-dependent gene expression profiles. The results from these determinations of apparent cytotoxicity were annotated (yes/no) alongside the corresponding qNPA data for reference.At the conclusion of each treatment period, hepatocyte cultures (96-well) were washed with 1 volume of HBSS, lysed by addition of 25 ul ArrayPlate lysis buffer (HTG, Tucson, AZ), and 70 ul/well of Denaturation Oil, denatured by incubation at 95C for 10 min, and frozen at approximately -70C until analysis by nuclease protection assay (qNPA) (Roberts et al., 2007). For qNPA analysis, cell lysates were thawed at 50C for approximately 30 min, qNPA probes were added, and samples were incubated at 95C for 10 min to begin the detection process by denaturing the target RNA, dissociating the duplexes and secondary structure hybridization. At the conclusion of the hybridization period, S1 nuclease reagent was added to each sample to digest all nonprotected nucleotides at 50C for 60-90 min. […]
Compound,outcome,AC50
CSC1=N[C@@](C)(c2ccccc2)C(=O)N1Nc1ccccc1,inactive,
CSc1nnc(C(C)(C)C)c(=O)n1N,,inconclusive: 1.88 µM
COP(=S)(OC)Oc1ccc(SC)c(C)c1,inactive,
CC1(C(=O)Nc2ccc(O)c(Cl)c2Cl)CCCCC1,,inconclusive: 0.0018 µM
COC(=O)c1ccccc1CS(=O)(=O)NC(=O)Nc1nc(OC)cc(OC)n1,,inconclusive: 20 µM
COP(=O)(OC)SCn1c(=O)oc2cc(Cl)cnc21,inactive,
CCc1ccc(C(=O)NN(C(=O)c2cc(C)cc(C)c2)C(C)(C)C)cc1,,active: 2.15 µM
CCC(=NOC/C=C/Cl)C1=C(O)CC(C2CCOCC2)CC1=O (stereo not given),,inconclusive: 20 µM
CN(C)C(=S)SSC(=S)N(C)C,,inconclusive: 20 µM
COC(=O)C(C)Oc1ccc(Oc2ccc(Cl)cc2Cl)cc1 (stereo not given),inactive,
N#Cc1cc(Br)c(O)c(Br)c1,,inconclusive: 20 µM
CCCCOC(=O)[C@@H](C)Oc1ccc(Oc2ccc(C#N)cc2F)cc1,,inconclusive: 0.0004 µM
CCOP(=S)(Oc1cnc(C(C)(C)C)nc1)OC(C)C (stereo not given),,active: 0.383 µM
C=CC1(C)OC(=O)N(c2cc(Cl)cc(Cl)c2)C1=O (stereo not given),,inconclusive: 1.89 µM
Oc1cc(Cl)ccc1Oc1ccc(Cl)cc1Cl,inactive,
CNC(=O)N(C)c1nnc(C(C)(C)C)s1,,inconclusive: 1.89 µM
CNC(=S)S,,inconclusive: 0.00101 µM
CC[C@H](C)[C@H]1O[C@]2(C=C[C@@H]1C)C[C@@H]1C[C@@H](C/C=C(\C)[C@@H](O[C@H]3C[C@H](OC)[C@@H](O[C@H]4C[C@H](OC)[C@@H](O)[C@H](C)O4)[C@H](C)O3)[C@@H](C)/C=C/C=C3\CO[C@@H]4[C@H](O)C(C)=C[C@@H](C(=O)O1)[C@]34O)O2 (tested in a mixture with another compound),,inconclusive: 2 µM

Compound,outcome,AC50
COC(=O)C=C(C)OP(=O)(OC)OC,inactive,
O=[N+]([O-])c1cc(C(F)(F)F)c(Cl)c([N+](=O)[O-])c1Nc1ncc(C(F)(F)F)cc1Cl,inactive,
CCSC(=O)N1CCCCCC1,,active: 3.97 µM
CN1CSC(=S)N(C)C1,,inconclusive: 5.64 µM
CNC(=O)ON=CC(C)(C)SC,inactive,
CNC(=O)ON=C(SC)C(=O)N(C)C,,inconclusive: 2.32 µM
C[N+]1(C)CCCCC1,,inconclusive: 1.88 µM
N#Cc1c(Cl)c(Cl)c(Cl)c(C#N)c1Cl,,active: 0.000914 µM
CCCCNC(=O)OCC#CI,,inconclusive: 20 µM
CS(=O)(=O)c1cc(C(F)(F)F)ccc1C(=O)c1cnoc1C1CC1,,active: 29.1 µM
CCC(CC)Nc1c([N+](=O)[O-])cc(C)c(C)c1[N+](=O)[O-],,active: 20 µM
[2H]C1([2H])[n+]2ccccc2-c2cccc[n+]2C1([2H])[2H],,inconclusive: 20 µM
CNC(=O)Oc1cccc(N=CN(C)C)c1,,inconclusive: 0.000595 µM
Cc1[nH]c(=O)n(C(C)(C)C)c(=O)c1Cl,inactive,
Cc1ccc(-c2c(Cl)nc(C#N)n2S(=O)(=O)N(C)C)cc1,,inconclusive: 20 µM
CNC(=O)Oc1cccc2c1OC(C)(C)O2,,inconclusive: 20 µM
O=C1c2ccccc2C(=O)N1SC(Cl)(Cl)Cl,,inconclusive: 0.0215 µM

# Three compounds drawn at random from those above:
Compound,outcome,AC50
N#Cc1c(Cl)c(Cl)c(Cl)c(C#N)c1Cl,,active: 0.000914 µM
CCC(CC)Nc1c([N+](=O)[O-])cc(C)c(C)c1[N+](=O)[O-],,active: 20 µM
C[N+]1(C)CCCCC1,,inconclusive: 1.88 µM
